# Several values for one entry are separate records, joined by “and”; a condition that tells them apart may be missing. Equal entries are not always repeated. In all, about 360,000 compounds went through this assay and about 7,500 (2.1%) were called active. The shares of active, inactive and inconclusive entries below differ from those in the screen. Calls follow the shape of the dose curve; as a rule, active = well fitted inhibition curve with a large enough effect; inconclusive = small, poorly fitted or top-dose-only effect, or effect the other way; inactive = flat fitted curve, though single readings scatter. Potencies of inconclusive entries are doubtful fits and often do not repeat.
# Experiment: Nrf2 qHTS screen for inhibitors; also: nearly all actives have a fitted effect of over 60% in size
# Details: A549 ARE-Fluc reporter, luciferase luminescence, 18-24 h; activity change, negative = inhibition: at 46 µM (top of the series)
# Outline: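 A549 ARE_Fluc cells, 5000/well, 5% FBS OPTI-MEM; compounds in dose-response, 18-24 h at 37 °C/5% CO2; CellTiter-Fluor viability read (Ex 405/Em 525), then BugLite luciferase luminescence = Nrf2 activity.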
# % is scaled to controls: 0 for no effect and ±100 for the full control effect; potency is read from the fitted curve at half-maximal effect.
SMILES,"activity change, negative = inhibition",Potency
CCOC(=O)C1Nc2ccccc2C2c3ccccc3CC12 (stereo not given),inactive: -11%,–
O=C(NCCc1ccccc1)c1ccc(Cn2c(SCc3cccc(F)c3)nc3cccnc32)cc1,–,"inconclusive: 29.1 µM [falling, single point]"
CCN(CC)S(=O)(=O)c1ccc(OC)c(NC(=O)c2cccc(C)c2[N+](=O)[O-])c1,–,"inconclusive: 5.17 µM [falling, partial curve, poor fit]"
CCOC(=O)N1CCN(C(=O)Cn2ccc3c(OC)cccc3c2=O)CC1,–,"inconclusive: 11.6 µM [falling, single point]"
CCOC(=O)CCNC(=O)N1CCCC(C(=O)c2ccc3c(c2)OCO3)C1 (stereo not given),inactive: -7.83%,–
O=C(O)c1ccc(N2CC3CC(C2)c2cccc(=O)n2C3)c(NC(=S)Nc2ccc(Br)cc2)c1 (stereo not given),inactive: -12.3%,–
COc1cc(CN(C)Cc2nc3cc(C(F)(F)F)ccc3c(=O)[nH]2)ccc1OC(F)F,–,"inconclusive: 25.9 µM [falling, single point]"
CNC(=O)c1cc(C(=O)c2ccccc2Br)c[nH]1,–,"inconclusive: 1.84 µM [activator, full curve, poor fit]"
CC(C)C[C@H]1CNC(=O)C(=O)N1C[C@H](C)NC(=O)Cc1ccccc1,inactive: 10.5%,–
Cc1cc(NC(NC(=O)c2ccco2)(C(F)(F)F)C(F)(F)F)no1,–,"inconclusive: 0.291 µM [falling, full curve, poor fit]"
O=C(CCCn1c(=O)c2cccn2c2ccc(F)cc21)NCc1ccc(Cl)cc1,inactive: 10.6%,–
NS(=O)(=O)c1ccc(C(=O)Nc2ccc(-c3nc4cccnc4s3)cc2)cc1,–,"inconclusive: 4.61 µM [activator, partial curve]"
COc1cccc(-n2cnc(=O)c3cccnc32)c1,–,"inconclusive: 13 µM [activator, single point]"
CCOC(=O)C(O)C1CCc2c([nH]c3ccc(C)cc23)C1=O (stereo not given),–,"inconclusive: 25.9 µM [falling, single point]"
NNC(=O)c1nnn(-c2nonc2N)c1-c1cccs1,–,"inconclusive: 5.8 µM [falling, full curve, poor fit]"
CN(c1ccc(C(=O)Nc2ccc3c(c2)OCO3)cc1)S(C)(=O)=O,–,"inconclusive: 2.59 µM [activator, full curve, poor fit]"
CN(C)c1ccc(/C=C(/NC(=O)c2ccccc2)C(=O)N/N=C/c2ccc([N+](=O)[O-])c(O)c2)cc1,–,"inconclusive: 6.51 µM [activator, single point]"
COc1ccc(Cl)cc1NC(=O)COC(=O)CCc1cc(OC)c(OC)c(OC)c1,inactive: -1.66%,–
O=C(Nc1ccc(OCC(F)(F)C(F)F)cc1)c1ccncc1,–,"inconclusive: 16.4 µM [falling, partial curve, poor fit]"
O=C(Cn1cnc2c(NCc3ccccc3)ncnc21)NCc1ccc2[nH]ccc2c1,–,"inconclusive: 8.2 µM [falling, partial curve, poor fit]"
CC(=O)c1sc2c(c1OC(=O)c1ccc(Cl)cc1)c(=O)n(-c1ccccc1)c(=S)n2-c1ccccc1,inactive: -1.53%,–
COc1ccc2cc(OCC(=O)NNC(=O)Nc3ccc(C(C)=O)cc3)ccc2c1,–,"inconclusive: 8.2 µM [activator, partial curve]"

SMILES,"activity change, negative = inhibition",Potency
Cc1ccc(OCC(=O)c2cc(C)n(-c3ccccc3)c2C)c([N+](=O)[O-])n1,–,"inconclusive: 9.2 µM [falling, partial curve, poor fit]"
CCC(c1nnnn1C1CCCCC1)N(Cc1ccco1)Cc1cc2ccc(OC)cc2[nH]c1=O (stereo not given),–,active: 23.1 µM
Cn1nc(-c2ccc3c(c2)OCCO3)c2ccccc2c1=O,–,"inconclusive: 20.6 µM [falling, single point]"
CCOc1ccccc1NC(=O)CCc1c(C)nn(-c2ccc(N3CCOCC3)nn2)c1C,inactive: 1.3%,–
Cc1nc(NC(=O)COC(=O)/C=C/c2ccco2)c(Cl)cc1Cl,–,"inconclusive: 29.1 µM [activator, single point]"
COC(=O)c1ccc(-n2c(CCC(=O)O)ccc2-c2ccc(C)cc2)cc1,–,inactive
CC1(C)CC(=O)C2=C(C1)OC(N)=C(C#N)C2C#Cc1ccccc1 (stereo not given),–,"inconclusive: 29.1 µM [falling, single point]"
Cc1nc(N2CCN(C(=O)c3cccs3)CC2)c2c3c(sc2n1)CCCC3,–,active: 18.4 µM
Cc1ccc(C)c(N2CCN(Cc3nnc(-c4ccc5c(c4)OCO5)o3)CC2)c1,inactive: -15.2%,–
CCc1ccc(NC(=O)c2ccccc2SC)cc1,–,"inconclusive: 20.6 µM [activator, single point]"
CCOC(=O)C1(Cc2ccccc2C)CCCN(S(=O)(=O)c2cccnc2)C1 (stereo not given),–,"inconclusive: 16.4 µM [falling, partial curve, poor fit]"
CCn1c(C)c(C)c2cc(C(=O)NCCCN3CCCCC3)ccc21,–,"inconclusive: 23.1 µM [activator, single point] and inconclusive: 29.1 µM [activator, single point]"
CSc1ncccc1C(=O)Nc1ccc2nc(C)sc2c1,inactive: 2.97%,–
Cc1cc2nc3ccc(N(C)C)cc3nc2cc1N,–,"inconclusive: 4.61 µM [activator, partial curve, poor fit]"
C/C(=N\NS(=O)(=O)c1ccc(Br)cc1)c1cccs1,–,"inconclusive: 18.4 µM [activator, partial curve, poor fit]"
C=CCn1c(=O)n(C(=O)OCC)c2cc(Br)ccc21,–,"inconclusive: 14.6 µM [falling, partial curve, poor fit]"
COc1ccccc1NS(=O)(=O)c1cc(C(=O)N2CC(C)CC(C)C2)ccc1C (stereo not given),–,"inconclusive: 23.1 µM [falling, single point]"
COC(=O)c1c(NC(=O)c2cccs2)sc2c1CCCC2,–,"inconclusive: 3.26 µM [activator, partial curve]"
Cc1ccsc1C(=O)OCC(=O)NCCc1ccccc1,–,"inconclusive: 18.4 µM [activator, partial curve, poor fit]"
CN1CCN(C2=Cc3cc(Cl)ccc3Sc3cc(F)ccc32)CC1,–,"inconclusive: 29.1 µM [falling, single point]"
Cc1ccc(-n2ncc3c2CCCC3NC(=O)CCc2c(C)noc2C)cc1C (stereo not given),–,"inconclusive: 16.4 µM [falling, partial curve, poor fit]"
CC(C)CC[n+]1ccccc1/C=C/c1ccc(N(C)C)cc1,–,active: 7.31 µM

SMILES,"activity change, negative = inhibition",Potency
COc1ccc(Nc2nc(C)cc(C)c2C#N)cc1,–,"inconclusive: 6.51 µM [activator, single point]"
CC1CC(C)CN(C(=O)c2ccc3c(=O)n(Cc4ccc5c(c4)OCO5)c(=S)[nH]c3c2)C1 (stereo not given),–,"inconclusive: 23.1 µM [falling, single point]"
CCC(=O)Nc1ccc2nc(SCCOc3ccccc3)sc2c1,–,"inconclusive: 0.82 µM [falling, full curve, poor fit]"
O=C(CSc1nncc2ccccc12)Nc1ccc(C(=O)O)cc1,–,"inconclusive: 2.59 µM [falling, full curve]"
Cc1cccc([C@@H]2[C@@H]3C(=O)N(Cc4ccccc4)C(=O)[C@@H]3[C@]3(Cc4ccccc4)C(=O)N(c4cccc(F)c4)C(=O)N23)c1,–,"inconclusive: 14.6 µM [activator, partial curve, poor fit]"
O=C(Nc1ccc(F)c(Cl)c1)c1ccccc1,–,"inconclusive: 9.2 µM [activator, partial curve]"
COC(=O)c1ccc(/C=N/Nc2nc(C)c(C)s2)cc1,–,"inconclusive: 13 µM [activator, partial curve]"
CC1CCc2c(sc3nc(CN4CCOCC4)nc(NS(=O)(=O)c4cccc([N+](=O)[O-])c4)c23)C1 (stereo not given),–,"inconclusive: 29.1 µM [falling, single point]"
O=C(Nc1cccc(F)c1)C1CCN(C(=O)c2ccc(Cl)cc2)CC1,inactive: 2.31%,–
CCCCOc1ccc(CNC(=O)c2ccc(NC(=O)N3CCCCc4ccccc43)cc2)cc1,–,"inconclusive: 16.4 µM [falling, single point]"
CC(=O)Nc1nonc1-c1nnc(SCC(=O)Nc2ccccc2)n1-c1ccccc1,inactive: 5.05%,–
COC(=O)CSc1nnc2n(C3CCCCC3)c(=O)c3c4c(sc3n12)CCCC4,–,"inconclusive: 29.1 µM [falling, single point]"
O=C(CNC(=O)c1ccccc1F)OCc1cc(=O)n2ccsc2n1,–,"inconclusive: 29.1 µM [activator, single point]"
CC1(C)N=C(SCC(=O)Nc2ccccc2)C(c2ccc(Cl)cc2)=N1,–,"inconclusive: 11.6 µM [falling, partial curve]"
CSCCC(=O)Nc1ccc(C(C)=O)cc1,–,"inconclusive: 9.2 µM [activator, partial curve]"
COc1ccc(CN(C)c2ccc(S(=O)(=O)N3CCN(C)CC3)cc2[N+](=O)[O-])cc1OC,–,active: 1.3 µM
Cc1ccc(S(=O)(=O)/N=C(/NC(=S)Nc2ccccc2)c2ccccc2)cc1,–,"inconclusive: 9.2 µM [activator, partial curve]"
Cc1noc(NS(=O)(=O)c2ccc(NC(=O)CSc3nc4ccccc4s3)cc2)c1C,inactive: 11.9%,–
CCOC(=O)N1CCN(S(=O)(=O)N2CCCC(C(=O)NCCCN3CCC(C)CC3)C2)CC1 (stereo not given),–,"inconclusive: 3.66 µM [activator, partial curve, poor fit]"
CCn1c(SCC(=O)Nc2nnc(C)s2)nnc1-c1ccco1,inactive: -5.03%,–
COc1cccc(S(=O)(=O)Nc2ccc(C(=O)Nc3ccncc3)cc2)c1,–,"inconclusive: 14.6 µM [falling, single point]"

# Twelve of the compounds above, bar-delimited.
SMILES | activity change, negative = inhibition | Potency
CCC(=O)Nc1ccc2nc(SCCOc3ccccc3)sc2c1 | – | inconclusive: 0.82 µM [falling, full curve, poor fit]
O=C(CSc1nncc2ccccc12)Nc1ccc(C(=O)O)cc1 | – | inconclusive: 2.59 µM [falling, full curve]
CC1CCc2c(sc3nc(CN4CCOCC4)nc(NS(=O)(=O)c4cccc([N+](=O)[O-])c4)c23)C1 (stereo not given) | – | inconclusive: 29.1 µM [falling, single point]
O=C(Nc1cccc(F)c1)C1CCN(C(=O)c2ccc(Cl)cc2)CC1 | inactive: 2.31% | –
CCCCOc1ccc(CNC(=O)c2ccc(NC(=O)N3CCCCc4ccccc43)cc2)cc1 | – | inconclusive: 16.4 µM [falling, single point]
CC(=O)Nc1nonc1-c1nnc(SCC(=O)Nc2ccccc2)n1-c1ccccc1 | inactive: 5.05% | –
O=C(CNC(=O)c1ccccc1F)OCc1cc(=O)n2ccsc2n1 | – | inconclusive: 29.1 µM [activator, single point]
CC1(C)N=C(SCC(=O)Nc2ccccc2)C(c2ccc(Cl)cc2)=N1 | – | inconclusive: 11.6 µM [falling, partial curve]
Cc1ccc(S(=O)(=O)/N=C(/NC(=S)Nc2ccccc2)c2ccccc2)cc1 | – | inconclusive: 9.2 µM [activator, partial curve]
Cc1noc(NS(=O)(=O)c2ccc(NC(=O)CSc3nc4ccccc4s3)cc2)c1C | inactive: 11.9% | –
CCOC(=O)N1CCN(S(=O)(=O)N2CCCC(C(=O)NCCCN3CCC(C)CC3)C2)CC1 (stereo not given) | – | inconclusive: 3.66 µM [activator, partial curve, poor fit]
CCn1c(SCC(=O)Nc2nnc(C)s2)nnc1-c1ccco1 | inactive: -5.03% | –
